Only a part is listed here, and it is no random draw. The data scatter; read single values as rough.

Chains of the proteins cited; added tags and fusions are not shown. Lines headed by an entry give the natural chain unless they say otherwise; changes in a name come on top.
UniProt P48147: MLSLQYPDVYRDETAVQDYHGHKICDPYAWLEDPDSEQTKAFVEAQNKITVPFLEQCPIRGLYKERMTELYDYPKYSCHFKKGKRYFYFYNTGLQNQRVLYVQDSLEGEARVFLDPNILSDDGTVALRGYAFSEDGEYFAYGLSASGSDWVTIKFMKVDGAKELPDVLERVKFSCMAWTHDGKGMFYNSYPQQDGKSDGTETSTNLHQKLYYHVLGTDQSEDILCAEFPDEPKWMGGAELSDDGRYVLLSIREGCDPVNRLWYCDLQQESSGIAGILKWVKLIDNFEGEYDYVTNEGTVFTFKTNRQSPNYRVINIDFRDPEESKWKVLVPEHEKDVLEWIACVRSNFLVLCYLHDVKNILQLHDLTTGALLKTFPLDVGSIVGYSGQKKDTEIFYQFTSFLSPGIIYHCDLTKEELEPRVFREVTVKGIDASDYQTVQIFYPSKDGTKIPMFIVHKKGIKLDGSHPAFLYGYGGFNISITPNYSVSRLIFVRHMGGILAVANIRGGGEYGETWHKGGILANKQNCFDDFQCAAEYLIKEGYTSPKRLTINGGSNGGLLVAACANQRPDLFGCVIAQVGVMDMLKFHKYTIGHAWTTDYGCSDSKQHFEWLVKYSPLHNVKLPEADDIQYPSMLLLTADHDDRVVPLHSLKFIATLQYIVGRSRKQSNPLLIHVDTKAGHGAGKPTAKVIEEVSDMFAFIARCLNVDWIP
UniProt P45974: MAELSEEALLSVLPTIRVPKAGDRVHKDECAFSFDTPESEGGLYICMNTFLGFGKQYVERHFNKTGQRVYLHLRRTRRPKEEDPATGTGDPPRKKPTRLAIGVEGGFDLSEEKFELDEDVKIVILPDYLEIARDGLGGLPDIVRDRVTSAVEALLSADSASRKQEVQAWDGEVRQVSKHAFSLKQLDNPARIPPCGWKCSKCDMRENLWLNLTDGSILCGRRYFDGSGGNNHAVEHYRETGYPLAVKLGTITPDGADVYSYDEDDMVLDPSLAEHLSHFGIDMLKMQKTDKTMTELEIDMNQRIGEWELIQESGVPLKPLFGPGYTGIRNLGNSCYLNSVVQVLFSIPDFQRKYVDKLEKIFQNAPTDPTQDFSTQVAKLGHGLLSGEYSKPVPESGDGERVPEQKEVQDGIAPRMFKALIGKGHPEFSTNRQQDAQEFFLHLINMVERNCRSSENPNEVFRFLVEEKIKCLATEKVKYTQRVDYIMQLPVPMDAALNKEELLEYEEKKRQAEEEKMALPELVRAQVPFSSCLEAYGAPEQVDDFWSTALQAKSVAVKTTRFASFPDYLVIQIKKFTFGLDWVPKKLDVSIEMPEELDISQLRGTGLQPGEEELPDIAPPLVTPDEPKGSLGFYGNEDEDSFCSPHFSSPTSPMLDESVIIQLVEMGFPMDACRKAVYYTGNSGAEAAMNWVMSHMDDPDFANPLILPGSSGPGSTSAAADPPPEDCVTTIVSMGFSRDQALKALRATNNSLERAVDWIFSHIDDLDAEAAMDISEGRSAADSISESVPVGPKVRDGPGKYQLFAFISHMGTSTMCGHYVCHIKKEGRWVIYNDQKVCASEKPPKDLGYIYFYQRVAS
UniProt P49792, whole entry, looked up: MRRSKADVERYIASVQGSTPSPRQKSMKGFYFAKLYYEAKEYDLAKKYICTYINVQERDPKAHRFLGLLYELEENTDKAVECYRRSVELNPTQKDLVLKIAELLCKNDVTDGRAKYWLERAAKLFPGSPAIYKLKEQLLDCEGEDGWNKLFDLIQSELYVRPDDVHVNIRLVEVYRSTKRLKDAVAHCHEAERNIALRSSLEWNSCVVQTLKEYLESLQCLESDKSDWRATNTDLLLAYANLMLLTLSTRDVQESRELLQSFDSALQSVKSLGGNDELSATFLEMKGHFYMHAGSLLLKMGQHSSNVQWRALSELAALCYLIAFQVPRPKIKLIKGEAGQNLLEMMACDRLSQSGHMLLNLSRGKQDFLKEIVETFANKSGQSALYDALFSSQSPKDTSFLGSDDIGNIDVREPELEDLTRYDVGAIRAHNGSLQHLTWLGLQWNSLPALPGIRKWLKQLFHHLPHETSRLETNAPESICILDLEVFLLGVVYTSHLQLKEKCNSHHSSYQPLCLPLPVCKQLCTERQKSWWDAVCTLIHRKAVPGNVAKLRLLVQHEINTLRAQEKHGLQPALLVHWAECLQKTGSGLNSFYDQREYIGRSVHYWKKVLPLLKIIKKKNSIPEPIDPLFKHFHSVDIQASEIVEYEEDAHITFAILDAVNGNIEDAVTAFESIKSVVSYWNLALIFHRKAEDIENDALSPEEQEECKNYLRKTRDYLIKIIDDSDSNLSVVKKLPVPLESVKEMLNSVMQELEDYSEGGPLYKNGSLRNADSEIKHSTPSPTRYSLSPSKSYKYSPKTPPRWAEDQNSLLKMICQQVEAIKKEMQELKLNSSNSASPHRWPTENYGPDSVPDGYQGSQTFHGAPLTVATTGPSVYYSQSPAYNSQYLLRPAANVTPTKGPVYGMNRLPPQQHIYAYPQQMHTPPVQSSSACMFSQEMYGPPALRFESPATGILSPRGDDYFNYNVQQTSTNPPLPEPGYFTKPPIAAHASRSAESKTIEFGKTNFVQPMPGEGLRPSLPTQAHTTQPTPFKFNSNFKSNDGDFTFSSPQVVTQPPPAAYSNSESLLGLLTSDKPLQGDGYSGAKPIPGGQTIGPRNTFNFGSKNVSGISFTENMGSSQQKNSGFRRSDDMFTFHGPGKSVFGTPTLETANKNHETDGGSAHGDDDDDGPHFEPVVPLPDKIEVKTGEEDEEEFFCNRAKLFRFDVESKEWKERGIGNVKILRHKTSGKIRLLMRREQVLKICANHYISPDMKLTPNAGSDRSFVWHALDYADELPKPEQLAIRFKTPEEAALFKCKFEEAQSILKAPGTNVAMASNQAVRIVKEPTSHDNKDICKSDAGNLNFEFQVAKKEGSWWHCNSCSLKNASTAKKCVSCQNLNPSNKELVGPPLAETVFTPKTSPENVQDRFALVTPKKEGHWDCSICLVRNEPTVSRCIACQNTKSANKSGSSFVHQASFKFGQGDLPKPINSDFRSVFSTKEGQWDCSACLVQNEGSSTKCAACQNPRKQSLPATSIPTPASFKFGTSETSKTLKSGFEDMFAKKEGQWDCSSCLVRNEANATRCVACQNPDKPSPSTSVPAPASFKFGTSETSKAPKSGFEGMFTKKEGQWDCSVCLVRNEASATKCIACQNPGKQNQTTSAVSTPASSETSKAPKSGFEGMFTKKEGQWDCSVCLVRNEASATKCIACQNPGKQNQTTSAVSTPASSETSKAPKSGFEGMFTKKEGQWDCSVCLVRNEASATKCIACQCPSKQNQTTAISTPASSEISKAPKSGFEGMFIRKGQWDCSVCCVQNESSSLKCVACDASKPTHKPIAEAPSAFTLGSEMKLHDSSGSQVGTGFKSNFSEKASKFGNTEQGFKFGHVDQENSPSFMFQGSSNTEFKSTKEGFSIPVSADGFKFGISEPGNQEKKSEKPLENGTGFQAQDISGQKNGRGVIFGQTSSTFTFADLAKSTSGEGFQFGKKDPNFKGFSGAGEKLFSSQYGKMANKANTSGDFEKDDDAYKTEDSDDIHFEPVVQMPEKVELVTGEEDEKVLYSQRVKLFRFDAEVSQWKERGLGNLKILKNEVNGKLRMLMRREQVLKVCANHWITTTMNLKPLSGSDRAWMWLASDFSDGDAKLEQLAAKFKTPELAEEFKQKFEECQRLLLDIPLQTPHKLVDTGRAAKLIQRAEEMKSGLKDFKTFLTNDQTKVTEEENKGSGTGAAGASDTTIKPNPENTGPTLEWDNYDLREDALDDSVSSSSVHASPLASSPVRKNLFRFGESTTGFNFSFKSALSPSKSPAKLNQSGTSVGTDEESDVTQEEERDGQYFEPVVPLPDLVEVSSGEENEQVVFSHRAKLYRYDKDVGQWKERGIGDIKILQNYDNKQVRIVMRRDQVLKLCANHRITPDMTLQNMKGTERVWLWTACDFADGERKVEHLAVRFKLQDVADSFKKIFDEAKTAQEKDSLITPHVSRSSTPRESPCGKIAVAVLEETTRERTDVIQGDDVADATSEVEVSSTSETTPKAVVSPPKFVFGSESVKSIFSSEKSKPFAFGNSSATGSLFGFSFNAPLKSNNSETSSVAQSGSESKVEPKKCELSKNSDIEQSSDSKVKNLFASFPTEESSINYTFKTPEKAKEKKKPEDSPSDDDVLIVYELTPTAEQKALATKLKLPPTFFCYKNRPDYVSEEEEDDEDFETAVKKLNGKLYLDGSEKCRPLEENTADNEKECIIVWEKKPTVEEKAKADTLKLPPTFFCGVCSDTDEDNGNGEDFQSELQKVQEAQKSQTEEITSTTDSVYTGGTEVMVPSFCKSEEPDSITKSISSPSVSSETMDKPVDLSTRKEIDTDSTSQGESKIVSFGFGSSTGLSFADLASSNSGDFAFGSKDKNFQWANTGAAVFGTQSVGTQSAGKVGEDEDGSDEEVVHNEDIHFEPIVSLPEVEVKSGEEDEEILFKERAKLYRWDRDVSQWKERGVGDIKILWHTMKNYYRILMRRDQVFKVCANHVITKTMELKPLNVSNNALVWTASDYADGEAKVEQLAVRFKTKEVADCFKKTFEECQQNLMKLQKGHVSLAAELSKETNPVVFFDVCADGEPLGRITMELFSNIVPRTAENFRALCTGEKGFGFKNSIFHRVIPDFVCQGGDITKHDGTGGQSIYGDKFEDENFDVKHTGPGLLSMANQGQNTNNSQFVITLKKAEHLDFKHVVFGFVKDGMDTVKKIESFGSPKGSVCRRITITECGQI
UniProt P49916: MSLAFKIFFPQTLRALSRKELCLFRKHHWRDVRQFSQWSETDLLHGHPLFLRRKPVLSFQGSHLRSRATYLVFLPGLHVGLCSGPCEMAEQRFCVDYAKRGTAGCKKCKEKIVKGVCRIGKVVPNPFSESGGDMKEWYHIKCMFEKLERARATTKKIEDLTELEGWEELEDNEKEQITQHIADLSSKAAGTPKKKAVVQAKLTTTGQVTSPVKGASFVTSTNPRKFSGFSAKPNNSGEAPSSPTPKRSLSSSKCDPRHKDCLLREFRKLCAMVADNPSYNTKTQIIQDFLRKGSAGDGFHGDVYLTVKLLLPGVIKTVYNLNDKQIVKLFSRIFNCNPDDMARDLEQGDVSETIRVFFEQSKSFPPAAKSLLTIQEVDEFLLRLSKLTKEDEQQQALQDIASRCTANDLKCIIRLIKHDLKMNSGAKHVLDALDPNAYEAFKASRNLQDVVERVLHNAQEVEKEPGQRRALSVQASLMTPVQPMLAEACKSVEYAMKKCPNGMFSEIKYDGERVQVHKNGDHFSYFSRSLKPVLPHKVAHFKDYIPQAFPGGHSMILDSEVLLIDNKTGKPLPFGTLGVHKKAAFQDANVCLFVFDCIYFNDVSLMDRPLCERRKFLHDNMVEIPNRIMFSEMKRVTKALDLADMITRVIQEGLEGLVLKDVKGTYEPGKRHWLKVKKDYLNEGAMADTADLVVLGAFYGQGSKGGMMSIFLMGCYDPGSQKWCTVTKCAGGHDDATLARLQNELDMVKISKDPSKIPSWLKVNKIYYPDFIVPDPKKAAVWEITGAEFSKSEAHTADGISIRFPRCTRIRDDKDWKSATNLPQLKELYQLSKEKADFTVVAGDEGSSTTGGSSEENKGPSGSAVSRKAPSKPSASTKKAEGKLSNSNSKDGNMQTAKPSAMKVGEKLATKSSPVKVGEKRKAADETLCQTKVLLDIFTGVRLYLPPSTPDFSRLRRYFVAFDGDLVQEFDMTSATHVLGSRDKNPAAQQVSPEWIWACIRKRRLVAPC
UniProt P46060: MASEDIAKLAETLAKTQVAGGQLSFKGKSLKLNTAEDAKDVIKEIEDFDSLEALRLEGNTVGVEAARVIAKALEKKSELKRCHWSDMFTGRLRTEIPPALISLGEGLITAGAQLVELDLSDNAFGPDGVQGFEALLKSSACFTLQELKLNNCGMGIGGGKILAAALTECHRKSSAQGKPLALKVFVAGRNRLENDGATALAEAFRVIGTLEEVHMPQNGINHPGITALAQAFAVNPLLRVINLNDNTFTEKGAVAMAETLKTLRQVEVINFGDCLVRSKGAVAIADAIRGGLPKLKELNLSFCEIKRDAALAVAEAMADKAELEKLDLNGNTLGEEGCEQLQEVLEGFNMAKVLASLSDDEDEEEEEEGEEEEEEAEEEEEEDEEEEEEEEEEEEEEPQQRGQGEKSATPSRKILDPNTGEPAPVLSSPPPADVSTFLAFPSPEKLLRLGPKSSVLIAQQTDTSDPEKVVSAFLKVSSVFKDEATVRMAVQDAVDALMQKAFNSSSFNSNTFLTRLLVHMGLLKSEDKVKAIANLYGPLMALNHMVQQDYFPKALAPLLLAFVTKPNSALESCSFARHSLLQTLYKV

Compound in the test: COC(=O)/C=C/c1ccccc1 [methyl cinnamate]
Nature of the test: log2 ratio of iodoacetamide-alkyne labeling of the cysteine site, DMSO over compound (competition); higher = stronger covalent engagement of the cysteine by the compound, active = 1 or more. Conditions: 500 µM; treatment time 1 h; system: HEK293T cell lysate. Put shortly:
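For each cysteine, the log2 competition ratio is mean control-channel reporter intensity over mean compound-channel reporter intensity. HEK293T lysate (2 mg/mL) was exposed to vehicle or electrophile (500 µM, 1 h, ambient temperature), labelled with iodoacetamide alkyne (1 h), clicked to sCIP-TMT reagents, digested overnight with trypsin at 37 °C, streptavidin-enriched and analysed by Orbitrap Eclipse LC-MS/MS with FAIMS and FragPipe. Cysteines quantified in only one of three replicates, each with duplicate channels, were excluded.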
On to CCT4 C295 (UniProt P50991), for which the “log2 ratio of iodoacetamide-alkyne labeling” value (“log2 ratio” below) was inactive: 0.24. The value for NUP153 C585 (UniProt P49790) was inactive: 0.0581; that for PREP C255 (UniProt P48147) was inactive: -0.0778; that for TAF6 C431 (UniProt P49848) was inactive: -0.0424. The value for USP5 C195 (UniProt P45974) was inactive: 0.192; that for RANBP2 C348 (UniProt P49792) was inactive: -0.00425. Consider ALDH7A1 C522 (UniProt P49419), for which the “log2 ratio” value is inactive: 0.104. With NDUFV1 C125 (UniProt P49821), the “log2 ratio” value is inactive: 0.00583. To LIG3 C929 (UniProt P49916) belongs inactive: 0.316; to LIMS1 C121 (UniProt P48059), inactive: 0.149; to ACADSB C175 (UniProt P45954), inactive: 0.287.

RANGAP1 C573 (UniProt P46060): the “log2 ratio” value is inactive: -0.112. To CTCF C38 (UniProt P49711) belongs inactive: -0.0136; to YLPM1 C1967 (UniProt P49750), inactive: 0.133. The value for UniProt P49591_C398 was inactive: -0.0649.
